These are yes or no findings as the source states them, for the method shown. In cells and extracts the contact can be indirect. Some binding calls cover weakened binding; strength is not graded here.

Amino acid sequences for entries named in this document (tags omitted).
UniProt Q13535: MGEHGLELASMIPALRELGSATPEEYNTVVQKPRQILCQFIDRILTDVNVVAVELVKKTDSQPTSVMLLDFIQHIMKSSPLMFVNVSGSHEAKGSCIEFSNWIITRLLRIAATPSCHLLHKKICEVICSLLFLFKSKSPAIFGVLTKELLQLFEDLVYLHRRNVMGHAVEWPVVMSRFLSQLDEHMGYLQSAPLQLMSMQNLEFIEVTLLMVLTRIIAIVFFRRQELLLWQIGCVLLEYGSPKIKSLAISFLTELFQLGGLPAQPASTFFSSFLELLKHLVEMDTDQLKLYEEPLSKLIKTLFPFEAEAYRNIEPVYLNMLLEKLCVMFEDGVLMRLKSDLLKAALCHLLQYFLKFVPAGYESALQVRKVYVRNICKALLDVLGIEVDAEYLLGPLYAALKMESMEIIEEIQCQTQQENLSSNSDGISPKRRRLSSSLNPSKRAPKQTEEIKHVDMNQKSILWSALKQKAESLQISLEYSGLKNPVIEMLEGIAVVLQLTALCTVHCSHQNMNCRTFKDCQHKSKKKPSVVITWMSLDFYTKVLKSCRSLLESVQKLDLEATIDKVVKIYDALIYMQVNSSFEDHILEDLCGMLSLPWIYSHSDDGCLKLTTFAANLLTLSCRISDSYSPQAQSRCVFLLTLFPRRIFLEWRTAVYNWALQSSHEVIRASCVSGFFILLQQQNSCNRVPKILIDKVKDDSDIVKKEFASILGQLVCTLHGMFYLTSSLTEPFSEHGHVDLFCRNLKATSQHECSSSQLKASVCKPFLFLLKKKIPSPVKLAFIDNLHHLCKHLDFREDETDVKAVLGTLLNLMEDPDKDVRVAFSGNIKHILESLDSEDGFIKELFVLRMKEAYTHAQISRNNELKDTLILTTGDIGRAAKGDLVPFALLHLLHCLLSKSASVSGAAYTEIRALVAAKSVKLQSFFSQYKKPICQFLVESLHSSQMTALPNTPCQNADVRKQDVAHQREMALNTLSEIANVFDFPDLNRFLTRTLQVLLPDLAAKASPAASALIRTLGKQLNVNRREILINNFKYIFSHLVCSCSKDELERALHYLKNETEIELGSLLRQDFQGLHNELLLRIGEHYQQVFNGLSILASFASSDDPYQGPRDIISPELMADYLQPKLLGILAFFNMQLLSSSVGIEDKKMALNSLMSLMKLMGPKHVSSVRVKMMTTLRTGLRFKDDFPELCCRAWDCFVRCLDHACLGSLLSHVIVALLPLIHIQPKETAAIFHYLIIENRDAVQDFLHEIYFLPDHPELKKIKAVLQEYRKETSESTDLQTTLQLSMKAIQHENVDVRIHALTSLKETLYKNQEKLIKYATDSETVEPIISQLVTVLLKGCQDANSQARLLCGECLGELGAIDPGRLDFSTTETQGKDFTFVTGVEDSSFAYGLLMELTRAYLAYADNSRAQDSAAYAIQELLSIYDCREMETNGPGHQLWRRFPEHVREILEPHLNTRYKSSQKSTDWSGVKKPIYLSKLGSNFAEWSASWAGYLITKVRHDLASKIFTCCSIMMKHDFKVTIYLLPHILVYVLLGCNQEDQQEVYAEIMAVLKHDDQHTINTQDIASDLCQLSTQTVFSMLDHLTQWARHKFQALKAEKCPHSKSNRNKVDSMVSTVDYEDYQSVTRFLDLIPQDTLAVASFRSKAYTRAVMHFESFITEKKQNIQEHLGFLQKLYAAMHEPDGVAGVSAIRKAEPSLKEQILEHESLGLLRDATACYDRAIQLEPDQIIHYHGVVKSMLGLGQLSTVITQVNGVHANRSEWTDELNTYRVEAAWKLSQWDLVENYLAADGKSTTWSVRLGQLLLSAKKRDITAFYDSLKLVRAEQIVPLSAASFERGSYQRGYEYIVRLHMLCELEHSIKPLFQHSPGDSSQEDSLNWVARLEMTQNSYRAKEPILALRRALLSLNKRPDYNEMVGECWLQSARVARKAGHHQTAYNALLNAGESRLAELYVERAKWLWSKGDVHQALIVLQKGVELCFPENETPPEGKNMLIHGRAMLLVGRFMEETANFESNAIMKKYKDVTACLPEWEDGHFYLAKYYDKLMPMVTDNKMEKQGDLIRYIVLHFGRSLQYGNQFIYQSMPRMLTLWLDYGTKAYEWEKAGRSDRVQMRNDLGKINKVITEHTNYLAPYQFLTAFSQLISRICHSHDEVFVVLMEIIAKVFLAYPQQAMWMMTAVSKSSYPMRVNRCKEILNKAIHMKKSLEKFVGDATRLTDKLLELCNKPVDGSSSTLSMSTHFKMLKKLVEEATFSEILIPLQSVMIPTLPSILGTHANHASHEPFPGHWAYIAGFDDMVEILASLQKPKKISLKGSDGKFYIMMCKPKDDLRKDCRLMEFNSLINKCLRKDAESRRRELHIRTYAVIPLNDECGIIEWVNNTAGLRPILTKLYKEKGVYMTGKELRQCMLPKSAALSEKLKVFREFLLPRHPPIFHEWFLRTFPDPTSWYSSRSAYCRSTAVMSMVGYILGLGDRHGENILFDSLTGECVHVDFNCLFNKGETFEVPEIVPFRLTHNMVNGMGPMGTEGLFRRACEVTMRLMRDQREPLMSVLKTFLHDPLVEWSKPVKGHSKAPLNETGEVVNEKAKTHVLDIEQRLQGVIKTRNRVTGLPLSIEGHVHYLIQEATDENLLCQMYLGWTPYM
UniProt P23771: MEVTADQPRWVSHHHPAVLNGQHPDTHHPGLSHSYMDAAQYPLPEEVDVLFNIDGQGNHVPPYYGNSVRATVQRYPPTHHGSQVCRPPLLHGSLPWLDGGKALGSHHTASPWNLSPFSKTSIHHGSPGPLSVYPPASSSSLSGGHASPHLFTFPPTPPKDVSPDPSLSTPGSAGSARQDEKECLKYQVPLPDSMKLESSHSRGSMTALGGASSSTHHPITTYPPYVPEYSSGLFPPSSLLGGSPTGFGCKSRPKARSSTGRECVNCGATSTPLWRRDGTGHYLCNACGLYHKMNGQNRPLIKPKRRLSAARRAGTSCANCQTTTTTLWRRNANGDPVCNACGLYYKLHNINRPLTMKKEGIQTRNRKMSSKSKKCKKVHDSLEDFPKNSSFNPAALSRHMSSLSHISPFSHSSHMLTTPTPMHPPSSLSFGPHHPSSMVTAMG

The target in assay [1] is T1, peroxisome-proliferator-activated receptor γ co-activator-1α (PGC1α) (human (endogenous in primary CD4+ T cells)) (UniProt Q9UBK2).
T1 sequence: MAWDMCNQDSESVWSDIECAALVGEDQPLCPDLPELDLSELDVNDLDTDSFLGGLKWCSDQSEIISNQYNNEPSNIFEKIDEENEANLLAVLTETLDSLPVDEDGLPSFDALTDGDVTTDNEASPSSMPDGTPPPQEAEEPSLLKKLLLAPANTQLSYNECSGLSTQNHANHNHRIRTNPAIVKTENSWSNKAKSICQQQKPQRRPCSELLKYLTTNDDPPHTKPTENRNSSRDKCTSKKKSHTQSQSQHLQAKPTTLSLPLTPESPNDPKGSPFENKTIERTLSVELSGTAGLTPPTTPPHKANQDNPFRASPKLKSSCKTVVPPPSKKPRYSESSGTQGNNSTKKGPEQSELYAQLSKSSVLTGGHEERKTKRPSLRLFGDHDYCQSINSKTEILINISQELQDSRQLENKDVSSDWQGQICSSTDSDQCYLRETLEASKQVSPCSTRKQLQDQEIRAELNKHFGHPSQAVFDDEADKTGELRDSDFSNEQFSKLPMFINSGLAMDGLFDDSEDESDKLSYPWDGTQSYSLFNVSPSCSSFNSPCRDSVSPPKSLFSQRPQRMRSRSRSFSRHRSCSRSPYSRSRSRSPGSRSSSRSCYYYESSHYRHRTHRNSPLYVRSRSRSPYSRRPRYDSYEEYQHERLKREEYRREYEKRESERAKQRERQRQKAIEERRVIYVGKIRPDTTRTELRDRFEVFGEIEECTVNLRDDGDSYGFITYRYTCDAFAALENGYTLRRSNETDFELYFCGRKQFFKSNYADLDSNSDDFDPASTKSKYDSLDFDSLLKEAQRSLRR
The experiment in a line: co-IP.

The target of assay [2] is T2, Chk1 (human (endogenous in primary CD4+ T cells)) (UniProt O14757).
T2 sequence: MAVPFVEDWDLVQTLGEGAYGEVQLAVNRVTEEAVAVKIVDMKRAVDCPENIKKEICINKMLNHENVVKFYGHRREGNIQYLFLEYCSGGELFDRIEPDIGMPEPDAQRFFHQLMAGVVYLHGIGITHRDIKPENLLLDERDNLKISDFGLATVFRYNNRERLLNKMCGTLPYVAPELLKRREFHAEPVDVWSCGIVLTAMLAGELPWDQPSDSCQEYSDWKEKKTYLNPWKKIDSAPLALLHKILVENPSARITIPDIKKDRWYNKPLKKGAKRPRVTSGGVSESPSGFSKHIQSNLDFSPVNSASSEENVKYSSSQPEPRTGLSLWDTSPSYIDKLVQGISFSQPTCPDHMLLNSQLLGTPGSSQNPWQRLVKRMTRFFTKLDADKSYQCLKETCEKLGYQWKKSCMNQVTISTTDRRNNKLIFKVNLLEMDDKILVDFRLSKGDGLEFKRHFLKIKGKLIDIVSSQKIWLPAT
The experiment in a line: co-IP.

With “ataxia telangiectasia and Rad3-related (ATR) (from UniProt Q13535 1-2644)”, the binding entry in assay [1] is given as “binds”.

For “GATA binding protein 3 (GATA3) (from UniProt P23771 1-443)”, the binding result in assay [2] is reported as “binds”.
